Experimental findings from publication PMC8895007, “Crystal structures of PigF, an O-methyltransferase involved in the prodigiosin synthetic pathway, reveal an induced-fit substrate-recognition mechanism” (IUCrJ, 2022) are described below.

These are yes or no findings as the source states them, for the method shown. Some binding calls cover weakened binding; strength is not graded here.

Assay [1] addresses Selenomethionine-derivatized PigF from Serratia marcescens FS14 (Serratia marcescens FS14) (UniProt Q5W249). The assay is described as follows: crystal structure; apo SeMet PigF, hanging-drop vapour diffusion, pH 4.6, 12% MPD, space group P12(1)1, two molecules in the asymmetric unit, 1.9 A; both purified.
The target in assay [2] is PigF, O-methyltransferase of the prodigiosin synthetic pathway from Serratia marcescens FS14 (Serratia marcescens FS14) (UniProt Q5W249). The assay is described as follows: crystal structure; PigF premixed with 2 mM SAH, hanging-drop vapour diffusion, pH 4.6, 12% MPD, space group P12(1)1, two monomers in the asymmetric unit, 1.97 A; both purified.

B1: Selenomethionine-derivatized PigF from Serratia marcescens FS14 (enzyme, UniProt Q5W249 1-338)
chain: MPLTKQDAVNQMMGFFQAKALTAALALKLFDQLRDRDADAAHIAARLDCPARSTEQLLIALRAMGYLDQRDGLYHLPAAHRAFLLSDEPQWLGWLGRHIDTFLYPLWGELKTAVRNDAHQRRTVFGDDRSWFDILYQNPDDVADFQEFLGKFAAPFIAGFVRDYDFSQHRAFLDIGSGIGSLPMAIADAYPGIALAICELPQASAFLRDKLTLQGYGERIDVVEGDVISGDLPIGGYDLIHLGWMLHDYAPETQLTILRNIYRAMPAGGRFIASETPLNEDKSGPEFTALLSLNMLVSTDGGIESSAQEYLDRFRLAGFSNARIMKIAGPRTLIVGEK
modifications: selenomethionine in place of methionine (SeMet-derivatized)
Turning to B1, the binding entry in assay [1] is reported as “binds”.

B2: PigF, O-methyltransferase of the prodigiosin synthetic pathway from Serratia marcescens FS14 (enzyme)
chain: B1 chain
notes: PigF of Serratia marcescens FS14, 338 amino-acid residues; 100% identical to PigF of S. marcescens VGH107 (NCBI WP 004940222.1); residues 3-338 are seen in both chains of the PigF-SAH structure; Cloned into pET-24b as in Liu et al., 2012; The results call the protein N-terminally polyhistidine-tagged; pET-24b usually adds a C-terminal His tag (surmise); Crystallised with 2 mM SAH (small molecule) …
As for B2, the binding result in assay [2] was “binds”.
